Measurements from PubChem BioAssay AID248 (DTP/NCI, 2004).
The list shows only some results of the screen, not a fair sample: it covers a few groups of compounds. Other doses and runs of a compound may be missing. T/C: endpoint of the treated group in % of that of the vehicle group. Where survival is the endpoint, this PubChem deposit counts one and a half times the control or more as active, and values a quarter to a half above the control carry no call in these data; other NCI protocols may use other cut-offs. Schedule codes are those of the source, taken here to give the interval after Q, in days (D) or hours (H), and the number of doses after X. Some T/C values are followed by the survivors on the day toxicity was checked, most often the fifth; where neither a count nor a note follows, no animal had died by that day. Some entries hold several experiments; the values are given in rising order. Additions like (4×) count equal records among those shown. Some schedule codes hold Z or #, which are not explained here.

System: L1210 leukemia ip in BDF1 mice, survival T/C
Assay: NCI In Vivo Anticancer Drug Screen. Data for tumor model L1210 Leukemia (intraperitoneal) in B6D2F1 (BDF1) mice
Conditions: T/C endpoint: mean survival time, higher T/C = longer survival

NC(=O)c1[nH]cnc1/N=N\N(CCCl)CCCl
T/C (dose: 56.0 mg/kg/injection, schedule: Q#A X Z (ip), vehicle: carboxymethylcellulose (CMC)): 126 and 160 % of control
T/C (dose: 62.5 mg/kg/injection, schedule: Q03HX016 (ip), vehicle: carboxymethylcellulose (CMC)): 532 % of control
T/C (dose: 65.0 mg/kg/injection, schedule: Q01DX009 (ip), vehicle: carboxymethylcellulose (CMC)): 236 % of control
T/C (dose: 65.0 mg/kg/injection, schedule: Q01DX017 (ip), vehicle: carboxymethylcellulose (CMC)): 280 % of control
T/C (dose: 65.0 mg/kg/injection, schedule: Q01DX Z (ip), vehicle: carboxymethylcellulose (CMC)): 265 and 400 % of control
T/C (dose: 65.0 mg/kg/injection, schedule: Q01DX Z (sc), vehicle: carboxymethylcellulose (CMC)): 200 % of control
T/C (dose: 65.9 mg/kg/injection, schedule: Q01DX001 (ip), vehicle: steroid suspending solution): 150 % of control
T/C (dose: 66.0 mg/kg/injection, schedule: Q03DX Z (ip), vehicle: carboxymethylcellulose (CMC)): 348 % of control
T/C (dose: 67.0 mg/kg/injection, schedule: Q01DX001 (ip), vehicle: carboxymethylcellulose (CMC)): 116 and 140 % of control
T/C (dose: 67.0 mg/kg/injection, schedule: Q07DX Z (ip), vehicle: carboxymethylcellulose (CMC)): 175 % of control
T/C (dose: 74.0 mg/kg/injection, schedule: Q06HX008 (ip), vehicle: carboxymethylcellulose (CMC)): 309 % of control
T/C (dose: 75.0 mg/kg/injection, schedule: Q01DX005 (oral), vehicle: carboxymethylcellulose (CMC)): 168 % of control
T/C (dose: 75.0 mg/kg/injection, schedule: Q01DX006 (iv), vehicle: carboxymethylcellulose (CMC)): 224 % of control [5 of 6 alive]
T/C (dose: 75.0 mg/kg/injection, schedule: Q01DX009 (oral), vehicle: carboxymethylcellulose (CMC)): 242 % of control
T/C (dose: 75.0 mg/kg/injection, schedule: Q01DX017 (oral), vehicle: steroid suspending solution): 148 and 192 % of control
T/C (dose: 75.0 mg/kg/injection, schedule: Q01DX Z (im), vehicle: carboxymethylcellulose (CMC)): 327 % of control
T/C (dose: 75.0 mg/kg/injection, schedule: Q01DX Z (ip), vehicle: carboxymethylcellulose (CMC)): 225, 319, 340 % of control
T/C (dose: 75.0 mg/kg/injection, schedule: Q01DX Z (oral), vehicle: carboxymethylcellulose (CMC)): 254 and 343 % of control
T/C (dose: 75.0 mg/kg/injection, schedule: Q01DX Z (sc), vehicle: carboxymethylcellulose (CMC)): 255 % of control
T/C (dose: 75.0 mg/kg/injection, schedule: Q03HX008 (oral), vehicle: carboxymethylcellulose (CMC)): 210 % of control
T/C (dose: 75.0 mg/kg/injection, schedule: Q04DX005 (oral), vehicle: carboxymethylcellulose (CMC)): 126 % of control
T/C (dose: 75.0 mg/kg/injection, schedule: Q06HX012 (oral), vehicle: steroid suspending solution): 120 % of control
T/C (dose: 75.0 mg/kg/injection, schedule: Q06HX020 (oral), vehicle: steroid suspending solution): 191 % of control
T/C (dose: 75.0 mg/kg/injection, schedule: Q06HX068 (oral), vehicle: steroid suspending solution): 134 % of control
T/C (dose: 75.0 mg/kg/injection, schedule: Q## X009 (oral), vehicle: carboxymethylcellulose (CMC)): 189 % of control
T/C (dose: 78.0 mg/kg/injection, schedule: Q01DX001 (ip), vehicle: other): 138 and 142 % of control
T/C (dose: 83.0 mg/kg/injection, schedule: Q04DX003 (ip), vehicle: other): 195 and 235 % of control
T/C (dose: 84.0 mg/kg/injection, schedule: Q#A X Z (ip), vehicle: carboxymethylcellulose (CMC)): 110 % of control
T/C (dose: 87.0 mg/kg/injection, schedule: Q01DX009 (ip), vehicle: other): 239, 243 [9 of 10 alive], 291 % of control
T/C (dose: 90.0 mg/kg/injection, schedule: Q12HX004 (ip), vehicle: carboxymethylcellulose (CMC)): 234 % of control
T/C (dose: 93.0 mg/kg/injection, schedule: Q01DX001 (ip), vehicle: carboxymethylcellulose (CMC)): 168 % of control
T/C (dose: 94.2 mg/kg/injection, schedule: Q01DX001 (ip), vehicle: steroid suspending solution): 165 % of control
T/C (dose: 95.0 mg/kg/injection, schedule: Q04DX004 (ip), vehicle: other): 261 % of control
T/C (dose: 99.0 mg/kg/injection, schedule: Q03DX Z (ip), vehicle: carboxymethylcellulose (CMC)): 348 and 357 % of control
T/C (dose: 100.0 mg/kg/injection, schedule: Q01DX001 (ip), vehicle: carboxymethylcellulose (CMC)): 139 (2×), 146, 150, 157, 158, 172 % of control
T/C (dose: 100.0 mg/kg/injection, schedule: Q01DX001 (ip), vehicle: saline): 131 and 139 % of control
T/C (dose: 100.0 mg/kg/injection, schedule: Q01DX001 (ip), vehicle: steroid suspending solution, evaluated on day 6): 195 % of control
T/C (dose: 100.0 mg/kg/injection, schedule: Q01DX001 (ip), vehicle: steroid suspending solution, evaluated on day 28): 149 % of control
T/C (dose: 100.0 mg/kg/injection, schedule: Q01DX001 (ip), vehicle: steroid suspending solution, evaluated on day 60): 118, 128, 195, 280 % of control
T/C (dose: 100.0 mg/kg/injection, schedule: Q01DX001 (ip), vehicle: water): 150, 159, 161, 279 % of control
T/C (dose: 100.0 mg/kg/injection, schedule: Q01DX001 (iv), vehicle: water): 154, 162, 178 % of control
T/C (dose: 100.0 mg/kg/injection, schedule: Q01DX005 (ip), vehicle: carboxymethylcellulose (CMC)): 188 and 340 % of control
T/C (dose: 100.0 mg/kg/injection, schedule: Q01DX009 (ip), vehicle: carboxymethylcellulose (CMC)): 308 % of control
T/C (dose: 100.0 mg/kg/injection, schedule: Q01DX009 (ip), vehicle: water): 329 % of control
T/C (dose: 100.0 mg/kg/injection, schedule: Q01DX009 (oral), vehicle: carboxymethylcellulose (CMC)): 212 % of control
T/C (dose: 100.0 mg/kg/injection, schedule: Q01DX017 (ip), vehicle: carboxymethylcellulose (CMC)): 197, 248 [9 of 10 alive], 302 % of control
T/C (dose: 100.0 mg/kg/injection, schedule: Q01DX Z (ip), vehicle: carboxymethylcellulose (CMC)): 179 % of control
T/C (dose: 100.0 mg/kg/injection, schedule: Q01DX Z (oral), vehicle: carboxymethylcellulose (CMC)): 178 % of control
T/C (dose: 100.0 mg/kg/injection, schedule: Q02DX009 (ip), vehicle: carboxymethylcellulose (CMC)): 283, 293, 351 % of control
T/C (dose: 100.0 mg/kg/injection, schedule: Q03HX003 (ip), vehicle: carboxymethylcellulose (CMC)): 187 % of control
T/C (dose: 100.0 mg/kg/injection, schedule: Q03HX008 (ip), vehicle: water): 348 % of control
T/C (dose: 100.0 mg/kg/injection, schedule: Q04DX002 (ip), vehicle: water): 130 and 178 % of control
T/C (dose: 100.0 mg/kg/injection, schedule: Q04DX003 (ip), vehicle: carboxymethylcellulose (CMC)): 195 % of control
T/C (dose: 100.0 mg/kg/injection, schedule: Q04DX003 (ip), vehicle: water): 319 % of control
T/C (dose: 100.0 mg/kg/injection, schedule: Q04DX003 (oral), vehicle: carboxymethylcellulose (CMC)): 177 % of control
T/C (dose: 100.0 mg/kg/injection, schedule: Q04DX005 (ip), vehicle: carboxymethylcellulose (CMC)): 290, 322, 368 % of control
T/C (dose: 100.0 mg/kg/injection, schedule: Q04DX Z (oral), vehicle: carboxymethylcellulose (CMC)): 256 % of control
T/C (dose: 100.0 mg/kg/injection, schedule: Q08DX002 (ip), vehicle: carboxymethylcellulose (CMC)): 178 % of control
T/C (dose: 100.0 mg/kg/injection, schedule: Q08DX002 (ip), vehicle: water): 289 % of control
T/C (dose: 100.0 mg/kg/injection, schedule: Q08DX003 (ip), vehicle: carboxymethylcellulose (CMC)): 263 % of control
T/C (dose: 100.0 mg/kg/injection, schedule: Q## X001 (ip), vehicle: carboxymethylcellulose (CMC)): 208 % of control
T/C (dose: 100.0 mg/kg/injection, schedule: Q## X003 (ip), vehicle: carboxymethylcellulose (CMC)): 213 % of control
